The source of these data is publication PMC11062894, “Protein-based bandpass filters for controlling cellular signaling with chemical inputs” (Nature Chemical Biology, 2023).

By UniProt entry, the sequences of proteins in these tests, tags left out.
UniProt P10415, whole entry: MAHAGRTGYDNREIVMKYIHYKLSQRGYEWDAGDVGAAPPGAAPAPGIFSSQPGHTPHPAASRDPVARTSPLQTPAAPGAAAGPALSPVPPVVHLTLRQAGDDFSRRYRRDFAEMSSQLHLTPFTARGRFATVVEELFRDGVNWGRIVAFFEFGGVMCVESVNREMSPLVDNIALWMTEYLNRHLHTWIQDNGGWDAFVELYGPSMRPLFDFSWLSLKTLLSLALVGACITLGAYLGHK

Where “and” joins values, the source holds several entries; their conditions need not be identical. Equal entries are not always repeated. This continues a long series; more values of the same kind are listed elsewhere.

The target of this test is GEMS with the dual-drug-controlled (A-1155463, venetoclax) switch (Bcl2 and BclXL–LD3) in HEK293T cells (Homo sapiens, UniProt P10415). Kind of test: GEMS SEAP reporter assay, dual-drug-controlled (A-1155463, venetoclax) switch. The settings on record: Figure 2c, ON-phase. It counts as cell-based. The text has this:
In the first step, we sought to construct a dual-drug-controlled switch to test whether the ON and OFF switching processes can be combined in our receptor architecture. We used Bcl2 and BclXL as the orthogonal drug receptors, which interact with the LD3 protein and respond to their own specific inhibitors. In such a setting, the dual-drug-controlled switch will turn ON in response to one drug and OFF in response to the other, thus mimicking bandpass filtering behavior (Supplementary Fig. 1d). […] To test the switch behavior, we employed the generalizable extracellular molecule sensor (GEMS) platform, which senses extracellular molecules and thus regulates cell surface signaling pathways (Fig. 2a). This receptor platform is based on a mutated EpoR extracellular and transmembrane domain fused to an IL-6RB intracellular domain. Dimerization of EpoR extracellular domains is controlled by N-terminally fused inducible dimerization domains, which drive IL-6RB activation and STAT3 signaling. The Bcl2 and BclXL–LD3 complexes were fused to the extracellular EpoR domains. […] The dimerization of Bcl2 and LD3 causes EpoR extracellular domain dimerization and triggers JAK/STAT3 signaling. Active STAT3 drives the expression of a reporter protein (secreted alkaline phosphatase (SEAP)) controlled by a STAT3-dependent promoter.
HEK293T cells were seeded in a 96-well plate 24 h before transfection. The transfection mix in each well consisted of 3 ng of constitutive human CMV promoter driven mammalian STAT3 expression vector (PhCMV-STAT3-pA), 30 ng of STAT3-induced reporter expression (OStat3-PhCMVmin-SEAP-pA) and 50 ng of expression vectors for each GEMS receptor chain (PSV40-IgK-(drughigh receptor)-EpoRm-IL-6RBm-pA and PSV40-IgK-(druglow receptor-GGGGSX3-LD3)-EpoRm-IL-6RBm-pA). For the specific drughigh receptor and druglow receptor used in the different cellular assays, they are indicated as wild type or with mutations. Then, plasmid DNA was mixed with 50 μl opti-MEM (Thermo Fisher) and 600 ng of polyethyleneimine (Polysciences, catalog no. 24765-1). For drug treatment experiments, drugs were added 12 h post-transfection and incubated with cells for 24 h before the SEAP reporter detection assay.
SEAP activity (U l^−1) in cell culture supernatants was quantified by kinetic measurements at 405 nm (1 minute per measurement for 30 cycles) of absorbance increase due to phosphatase-mediated hydrolysis of para-nitrophenyl phosphate (pNPP).
Binding affinities of SPR drug competition assays were calculated using three-parameter nonlinear regression in GraphPad Prism (v.8.3.0). Representative data of cell assays are presented as individual values and mean values (bars). n = 3 refers to biological replicates. All IC50 or EC50 values of cell assays reported were calculated using four-parameter nonlinear regression ± s.d. Bandpass features of cutoff concentrations and Bandwidth90% were estimated based on the curve fitted using bell-shaped curve nonlinear regression in GraphPad Prism (v.8.3.0).

Regarding `CN(C)CC#Cc1ccc(OCCCc2sc(N3CCc4cccc(C(=O)Nc5nc6ccccc6s5)c4C3)nc2C(=O)O)c(F)c1` [A-1155463], the “SEAP (U/L)” value reads like this: (Independent repeat, A-1155463 0.001 nM) 8.652 U/L and 8.318 U/L and 8.29 U/L; (Independent repeat, A-1155463 0.01 nM) 9.057 U/L and 8.001 U/L and 10.9754 U/L; (Independent repeat, A-1155463 0.1 nM) 14.1845 U/L and 11.1764 U/L and 14.2499 U/L; (Independent repeat, A-1155463 316 nM) 456.921 U/L and 405.388 U/L and 502.279 U/L; (Independent repeat, A-1155463 1000 nM) 394.23 U/L and 382.851 U/L and 392.812 U/L; (Representative, A-1155463 0.001 nM) 5.8952 U/L and 7.209 U/L and 6.83 U/L. For the same compound, the “SEAP (U/L)” value runs as follows: (Representative, A-1155463 0.01 nM) 7.843 U/L and 6.762 U/L and 8.087 U/L; (Representative, A-1155463 0.1 nM) 9.616 U/L and 8.189 U/L and 10.3625 U/L; (Representative, A-1155463 316 nM) 87.4799 U/L and 90.9245 U/L; (Representative, A-1155463 1000 nM) 61.3538 U/L and 85.7682 U/L and 92.3267 U/L.
